Data as given in PubChem BioAssay AID504808 (Drosophila RNAi Screening Center, 2011)
Screen: 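Genes whose loss lifts activity of an E2F-responsive reporter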 (primary screen). Cell system: Drosophila S2 cells. Reagent: long dsRNA against Drosophila genes. Measured: 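Firefly luciferase driven by E2F sites, normalised to Renilla luciferase on the same minimal promoter, measured by plate reader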. Reading the numbers: E2F firefly: higher = more E2F reporter activity; Renilla normaliser: higher = more normaliser reporter signal. Hit rule: 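Called active if the normalised E2F reporter went up by over 50%; the cutoff is arbitrary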.
In all, the deposit lists about 21,000 reagents; this is an unselected part of those that have a named target and a result. In the full data, 18 (0.084%) were called active. 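Raw counts without plate normalisation, one of two replicates; the ratio scores behind the calls were not deposited.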 Unmarked entries are inactive. The numbers tell different reagents against one gene apart. A plus sign joins genes that one reagent is predicted to hit. No sequences are given here. The record does not give: the amount of reagent, the time to read-out.

no.	target	dsRNA no.	E2F firefly, rep 1	Renilla normaliser, rep 1
1	Lsm12a (LSM12 homolog a)	1	72065	3993
2	Polr3H (RNA polymerase III subunit H)	1	1.30e5	7317
3	CG13806	1	93348	4142
4	Dtwd2 + Obp84a	1	1.40e5	7290
5	CG31523	1	91766	3923
6	CG31523	2	87286	4490
7	Nurf-38 (Nucleosome remodeling factor - 38kD)	1	1.07e5	3920
8	Dad	1	61340	2668
9	Dnz1 (DNZDHHC/NEW1 zinc finger protein 11)	1	89194	3569
10	CG9689	1	8038	700
11	CG7457	1	1.00e5	3762
12	intr (intrepid)	1	1888	792
13	CG8565	1	1.47e5	6206
14	H2.0 (Homeodomain protein 2.0)	1	1.68e5	5579
15	CG14229	1	1.05e5	5597
16	Or71a (Odorant receptor 71a)	1	1.67e5	9023
17	CG6044	1	96059	3700
18	betaTub85D (beta-Tubulin at 85D)	1	1.16e5	5968
19	scaf (scarface)	1	71084	3062
20	CG9777	1	1.61e5	6237
21	CG1440	1	1.35e5	6084
22	CG17712	1	80622	3798
23	sesB (stress-sensitive B)	1	1.27e5	5700
24	RN-tre (Related to the N terminus of tre oncogene)	1	98842	4348
25	eIF3h (eukaryotic translation initiation factor 3 subunit h)	1	1.07e5	4264
26	CG14370	1	1.09e5	6467
27	CAH15 (Carbonic anhydrase 15)	1	1.18e5	4922
28	Trf (TBP-related factor)	1	1.46e5	6597
29	CG13250	1	1.42e5	6397
30	CG7140	1	1.38e5	6642
31	Eaat1 (Excitatory amino acid transporter 1)	1	1.67e5	5255
32	CG42361	1	1.04e5	4490
33	Strn-Mlck (Stretchin-Mlck)	1	71303	3402
34	Strn-Mlck (Stretchin-Mlck)	2	1.57e5	7253
35	Strn-Mlck (Stretchin-Mlck)	3	1.54e5	5009

2 successive records from above:
no.	target	dsRNA no.	E2F firefly, rep 1	Renilla normaliser, rep 1
13	CG8565	1	1.47e5	6206
14	H2.0 (Homeodomain protein 2.0)	1	1.68e5	5579
